# The supplement of paper PMC11732987, “Enantioselective OTUD7B fragment discovery through chemoproteomics screening and high-throughput optimisation” (Communications Chemistry, 2025)
# Sequences of proteins named here, by UniProt entry; tags and fusion partners are left off. A change or cut given only in a name is not applied to a line headed by its entry.
# UniProt O60307: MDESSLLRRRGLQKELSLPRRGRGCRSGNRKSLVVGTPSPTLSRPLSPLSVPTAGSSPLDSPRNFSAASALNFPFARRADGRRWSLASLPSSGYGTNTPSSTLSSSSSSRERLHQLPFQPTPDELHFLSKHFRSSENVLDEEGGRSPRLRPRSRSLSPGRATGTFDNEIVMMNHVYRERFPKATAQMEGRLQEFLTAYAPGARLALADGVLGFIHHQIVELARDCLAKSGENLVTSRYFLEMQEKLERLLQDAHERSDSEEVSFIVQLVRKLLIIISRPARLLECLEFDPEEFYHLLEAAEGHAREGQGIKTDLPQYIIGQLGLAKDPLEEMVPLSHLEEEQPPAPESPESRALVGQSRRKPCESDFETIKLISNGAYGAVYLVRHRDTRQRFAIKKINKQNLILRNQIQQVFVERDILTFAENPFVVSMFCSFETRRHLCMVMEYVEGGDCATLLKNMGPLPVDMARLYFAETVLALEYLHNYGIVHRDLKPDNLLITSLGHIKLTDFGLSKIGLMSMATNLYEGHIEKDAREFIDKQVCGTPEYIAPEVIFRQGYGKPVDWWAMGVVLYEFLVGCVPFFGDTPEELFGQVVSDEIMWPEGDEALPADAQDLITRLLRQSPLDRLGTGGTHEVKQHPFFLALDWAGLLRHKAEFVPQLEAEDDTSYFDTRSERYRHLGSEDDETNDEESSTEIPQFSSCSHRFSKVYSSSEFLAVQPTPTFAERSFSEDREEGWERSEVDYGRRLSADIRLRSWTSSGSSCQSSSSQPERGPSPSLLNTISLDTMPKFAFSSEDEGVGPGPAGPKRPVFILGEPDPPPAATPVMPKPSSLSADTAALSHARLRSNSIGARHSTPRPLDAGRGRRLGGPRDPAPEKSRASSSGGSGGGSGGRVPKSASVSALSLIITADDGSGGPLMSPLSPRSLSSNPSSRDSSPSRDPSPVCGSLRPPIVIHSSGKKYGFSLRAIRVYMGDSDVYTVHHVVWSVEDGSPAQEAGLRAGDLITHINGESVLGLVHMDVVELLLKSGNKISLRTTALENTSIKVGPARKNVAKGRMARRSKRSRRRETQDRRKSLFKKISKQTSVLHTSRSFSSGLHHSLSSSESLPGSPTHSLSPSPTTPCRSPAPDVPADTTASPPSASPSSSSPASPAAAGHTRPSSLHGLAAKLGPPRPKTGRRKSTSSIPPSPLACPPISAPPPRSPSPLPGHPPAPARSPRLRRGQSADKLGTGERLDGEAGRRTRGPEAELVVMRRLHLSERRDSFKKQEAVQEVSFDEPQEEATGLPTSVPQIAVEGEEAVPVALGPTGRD
# The list shows a part of the results. The data scatter; read single values as rough.
# Molecular target: T1, MAST3 C700 (UniProt O60307)
# T1 sequence (whole entry): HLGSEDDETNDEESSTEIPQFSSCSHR
# Assay: log2 mean competition ratio of IA-DTB cysteine labelling (DMSO/compound) (log2 ratio); higher = stronger cysteine engagement by compound
# Conditions: 50 µM; treatment time: 4 h; cell line lysate: HEK293T
# Experimental: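 IA-DTB competitive cysteine chemoproteomics in HEK293T RIPA lysate. Lysates were treated with compound 29 or 30 at 50 or 200 µM for 4 h, then IA-DTB (500 µM, 1 h), trypsin-digested, NeutrAvidin-enriched and analysed by diaPASEF. Competition ratio = intensity DMSO / intensity compound (n=4 treated, n=64 DMSO); binding: mean log2 CR ≥ 1 and p ≤ 0.05 plus QC filters. Target is the cysteine site.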
row,SMILES,log2 mean competition ratio
1,O=C(CCl)N[C@H]1CCCc2ccccc21,0.105
2,O=C(CCl)N[C@@H]1CCCc2ccccc21,0.0498

# Same assay, conditions: 200 µM; treatment time: 4 h; cell line lysate: HEK293T
row,SMILES,log2 mean competition ratio
1,O=C(CCl)N[C@H]1CCCc2ccccc21,-0.0869
2,O=C(CCl)N[C@@H]1CCCc2ccccc21,-0.0636
